The source of these data is PMC5847621.

Chains of the proteins cited; added tags and fusions are not shown. Lines headed by an entry give the natural chain unless they say otherwise; changes in a name come on top.
UniProt P0C2X0: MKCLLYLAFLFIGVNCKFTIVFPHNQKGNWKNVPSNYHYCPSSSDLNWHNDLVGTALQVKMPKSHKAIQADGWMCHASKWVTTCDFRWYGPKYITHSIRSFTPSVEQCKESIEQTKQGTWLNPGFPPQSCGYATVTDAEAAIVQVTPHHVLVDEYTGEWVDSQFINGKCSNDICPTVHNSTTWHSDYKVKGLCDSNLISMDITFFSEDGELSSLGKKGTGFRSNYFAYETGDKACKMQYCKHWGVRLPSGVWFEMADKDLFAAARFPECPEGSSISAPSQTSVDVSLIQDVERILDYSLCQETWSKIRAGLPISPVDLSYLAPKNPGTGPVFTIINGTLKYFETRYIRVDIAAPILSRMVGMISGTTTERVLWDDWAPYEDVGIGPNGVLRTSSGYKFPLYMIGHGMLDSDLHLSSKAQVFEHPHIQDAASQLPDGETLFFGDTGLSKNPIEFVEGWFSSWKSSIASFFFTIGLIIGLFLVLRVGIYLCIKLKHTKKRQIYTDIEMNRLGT

No constants are given. Whether binding was seen depends on the method and setting.

For test [1], the target named is GST-CR3, LDL-R cysteine-rich domain CR3 in fusion with glutathione S-transferase (human) (UniProt P01130). The experiment in a line: pull-down; both purified.
In test [2] the target is GST-CR2, LDL-R cysteine-rich domain CR2 in fusion with glutathione S-transferase (human) (UniProt P01130). The test is described as follows: pull-down; both purified.

In the case of “VSV glycoprotein G on VSV viral particles and at the surface of VSV-infected BSR cells (from UniProt P0C2X0 17-511)”, the binding result in test [1] and in test [2] was “no binding (condition: at pH 6)” each time.
In the case of “VSV Gth, soluble form of the ectodomain of VSV glycoprotein G (residues 1-422) (from UniProt P0C2X0 17-438) (domain or fragment)”, the binding result in test [1] and in test [2] was “no binding (condition: at pH 6)” each time.
